Experimental findings from PMC3906106 are described below.

Protein sequences, listed by entry. Tags and fused reporters are not part of them. Residues count along the entry.
UniProt P07355, 2-339: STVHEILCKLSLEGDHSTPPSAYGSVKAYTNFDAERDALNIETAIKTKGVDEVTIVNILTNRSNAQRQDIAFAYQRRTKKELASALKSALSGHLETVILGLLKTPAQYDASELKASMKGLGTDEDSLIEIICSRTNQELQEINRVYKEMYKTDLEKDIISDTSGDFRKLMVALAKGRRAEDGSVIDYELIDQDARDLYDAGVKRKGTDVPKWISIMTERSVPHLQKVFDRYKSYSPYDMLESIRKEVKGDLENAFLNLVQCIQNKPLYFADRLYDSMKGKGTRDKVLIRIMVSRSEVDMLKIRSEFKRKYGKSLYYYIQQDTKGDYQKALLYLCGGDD

Results from cells or extracts need not show a direct contact. For some assays here: A negative result means that nothing was seen under these conditions. For some assays here: The exact form of at least one protein or probe is not confirmed.

The target of series [1] is Annexin A2 (human (MCF-7 cells)) (UniProt P07355). Description: pull-down from MCF-7 cells, LC-MS/MS. Particulars: tRNA, ssDNA, polyinosine competitors, 1 mM Ca2+, 0.5 mM Mg2+, 2'-F pyrimidines (2'F-C, 2'F-U), pull-down: D-PBS with 1 mM Ca2+, 20 nM RNA, on ice, protein in an extract, label: 3'-biotin.
Series [2] shares this target. Description: pull-down from MCF-7 cells, silver stain. As to conditions: tRNA, ssDNA, polyinosine competitors, 1 mM Ca2+, 0.5 mM Mg2+, 37 kD band not observed, 2'-F pyrimidines (2'F-C, 2'F-U), pull-down: D-PBS with 1 mM Ca2+, 20 nM RNA, on ice, protein in an extract, label: 3'-biotin.

On to “GGGAGAUGAUCCGUUGAUGCGAGGGAACGCAAGAACUGAGGCCAUGAGGCGCCUUCCCUUGCUCAGGACGCAAGUCGUCGUUCGUAGGCAGAAUC [ACE4 3'-biotin]”, for which the binding result in series [1] was “binds”.

Consider “GGGAGAUGAUCCGUUGAUGCGAGGAUCCCUACGACCUCGUAGCACACACAUAGGUGCACUCACCCGGCUGACCAAGUCGUCGUUCGUAGGCAGAAUC [Scramble sequence 3'-biotin]”, for which the binding result in series [2] is “no binding”.
